{"source": "PubChem BioAssay AID743454 | Peter MacCallum Cancer Centre | 2014", "assay": "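Knock-downs lowering viability or raising caspase 3/7 activity in vorinostat-treated resistant cells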 (primary screen)", "cells": "human HCT116-VR colon cancer cells, selected for vorinostat resistance", "knock-down reagent": "siRNA pool against human genes, 40 nM siRNA pool", "duration": "vorinostat for 24 h, read-out about 72 h after transfection", "treatment": "vorinostat at 2.5 µM final", "measurement": "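Cell viability by CellTiter-Fluor and caspase 3/7 activity by luminescence, each scaled to mock wells per plate, duplicates averaged, then robust z-scored over all plates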", "reading the numbers": "viability robust z-score: higher = more viable cells than screen typical; caspase robust z-score: higher = more caspase 3/7 activity than screen typical", "active means": "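a knock-down is a hit when classed RV1 or RV2 for lowered viability, or CA1 or CA2 for caspase activation; those lethal without drug were dropped; hits were retested singly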", "note": "Shown is a random part of about 18,000 deposited reagents. 450 of all reagents (2.5%) were called active. 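Single biological run; no consistent viability z cut-off exists, so the class columns, not z-scores, define the calls.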 A number with no mark means an inactive call."}
{"Target gene": "LHFPL5", "viability hit class": "no change", "caspase hit class": "no change", "viability robust z-score": 0.26, "caspase robust z-score": -0.5}
{"Target gene": "CCT8", "viability hit class": "no change", "caspase hit class": "no change", "viability robust z-score": -2.56, "caspase robust z-score": 4.67}
{"Target gene": "DNASE1L2", "viability hit class": "no change", "caspase hit class": "no change", "viability robust z-score": 0.83, "caspase robust z-score": 1.9}
{"Target gene": "SEMG1", "viability hit class": "no change", "caspase hit class": "no change", "viability robust z-score": 0.23, "caspase robust z-score": -0.7}
{"Target gene": "NRSN2", "viability hit class": "no change", "caspase hit class": "no change", "viability robust z-score": 0.86, "caspase robust z-score": -0.29}
{"Target gene": "ZNF615", "viability hit class": "no change", "caspase hit class": "no change", "viability robust z-score": 0.67, "caspase robust z-score": -0.18}
{"Target gene": "LRRC25", "viability hit class": "no change", "caspase hit class": "no change", "viability robust z-score": 0.48, "caspase robust z-score": -0.68}
{"Target gene": "ANKHD1", "viability hit class": "no change", "caspase hit class": "no change", "viability robust z-score": 0.28, "caspase robust z-score": 1.04}
{"Target gene": "ALKBH1", "viability hit class": "no change", "caspase hit class": "no change", "viability robust z-score": 0.05, "caspase robust z-score": -0.17}
{"Target gene": "EFS", "viability hit class": "no change", "caspase hit class": "no change", "viability robust z-score": -0.14, "caspase robust z-score": 1.76}
{"Target gene": "S1PR2", "viability hit class": "no change", "caspase hit class": "no change", "viability robust z-score": -0.68, "caspase robust z-score": 3.28}
{"Target gene": "FGF9", "viability hit class": "no change", "caspase hit class": "no change", "viability robust z-score": 1.11, "caspase robust z-score": 0.02}
{"Target gene": "CAPN2", "viability hit class": "no change", "caspase hit class": "no change", "viability robust z-score": -2.92, "caspase robust z-score": 0.7}

Look-ups from the list:
SEMG1, viability hit class: no change
Result of LHFPL5 under “viability hit class”: no change

More reagents follow.
{"Target gene": "TRIML1", "viability hit class": "no change", "caspase hit class": "no change", "viability robust z-score": -1.29, "caspase robust z-score": 0.82}
{"Target gene": "TFDP1", "viability hit class": "no change", "caspase hit class": "no change", "viability robust z-score": -0.71, "caspase robust z-score": 1.88}
{"Target gene": "GALT", "viability hit class": "no change", "caspase hit class": "no change", "viability robust z-score": -1.39, "caspase robust z-score": -0.11}
{"Target gene": "PPFIA1", "viability hit class": "no change", "caspase hit class": "no change", "viability robust z-score": 0.86, "caspase robust z-score": 0.09}
{"Target gene": "CCDC38", "viability hit class": "no change", "caspase hit class": "no change", "viability robust z-score": -0.4, "caspase robust z-score": 0.22}
{"Target gene": "CPM", "viability hit class": "no change", "caspase hit class": "no change", "viability robust z-score": -0.08, "caspase robust z-score": -1}
{"Target gene": "COX10", "viability hit class": "no change", "caspase hit class": "no change", "viability robust z-score": -0.92, "caspase robust z-score": 0.62}
{"Target gene": "PTK2", "viability hit class": "no change", "caspase hit class": "no change", "viability robust z-score": 0.19, "caspase robust z-score": -1.05}
